Among the data in article PMC10042849 are Kd values, retold here.

Protein sequences, listed by entry. Tags and fused reporters are not part of them. Residues count along the entry.
UniProt Q8A0N4, 27-476 D312A/E314L limits assumed: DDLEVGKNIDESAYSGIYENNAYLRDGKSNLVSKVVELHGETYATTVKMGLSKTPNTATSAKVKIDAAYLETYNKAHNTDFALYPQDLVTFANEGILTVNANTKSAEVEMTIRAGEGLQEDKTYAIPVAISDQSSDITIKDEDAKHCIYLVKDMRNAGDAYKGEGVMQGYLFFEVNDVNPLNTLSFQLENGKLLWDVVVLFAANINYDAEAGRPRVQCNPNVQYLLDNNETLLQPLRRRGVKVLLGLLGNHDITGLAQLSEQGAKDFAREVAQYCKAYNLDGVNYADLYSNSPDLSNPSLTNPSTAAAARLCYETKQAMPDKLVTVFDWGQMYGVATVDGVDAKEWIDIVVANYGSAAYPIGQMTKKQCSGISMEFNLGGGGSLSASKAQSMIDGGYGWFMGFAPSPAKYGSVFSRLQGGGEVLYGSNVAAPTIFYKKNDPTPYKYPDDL

The structures given here were assigned with low confidence; some may be wrong.

The experiment has as its target EndoBT-3987 (Bacteroides thetaiotaomicron, UniProt Q8A0N4, D312A/E314L). The experiment is described as follows: methyl-TROSY NMR titration, 2D line-shape fitting (TITAN), two-state model. The following applies: catalytically inactive mutant; 20 mM Tris-d11 pH* 7.50, 50 mM NaCl, D2O, 298 K; MILV-labelled protein.

Regarding `CC(=O)N[C@@H]1[C@@H](O)[C@H](O[C@@H]2O[C@H](CO)[C@@H](O[C@@H]3O[C@H](CO[C@H]4O[C@H](CO[C@H]5O[C@H](CO)[C@@H](O)[C@H](O)[C@@H]5O[C@H]5O[C@H](CO)[C@@H](O)[C@H](O)[C@@H]5O)[C@@H](O)[C@H](O[C@H]5O[C@H](CO)[C@@H](O)[C@H](O)[C@@H]5O[C@H]5O[C@H](CO)[C@@H](O)[C@H](O)[C@@H]5O)[C@@H]4O)[C@@H](O)[C@H](O[C@H]4O[C@H](CO)[C@@H](O)[C@H](O)[C@@H]4O[C@H]4O[C@H](CO)[C@@H](O)[C@H](O)[C@@H]4O[C@H]4O[C@H](CO)[C@@H](O)[C@H](O)[C@@H]4O)[C@@H]3O)[C@H](O)[C@H]2NC(C)=O)[C@@H](CO)O[C@H]1NC(=O)C[C@H](N)C(=O)O`, the dissociation constant Kd is 1700 nM.
